PubChem BioAssay AID1259331 | Drosophila RNAi Screening Center, 2017

Aim: 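Knock-downs that alter ATP level after a high zinc chloride dose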 (primary screen)
Cell system: Drosophila S2R+ cells
Reagent: long dsRNA against Drosophila genes
Time to read-out: 5 days (4 days knock-down, then 1 day zinc)
Conditions: zinc chloride at 15 mM final level for 1 day
Measurement: 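Total cellular ATP measured by luciferase luminescence as a viability proxy, turned into Z scores from three plate copies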
Reading the numbers: mean Z score: higher = more ATP than other wells, better survival under zinc; ATP luminescence: higher = more ATP, more viable cells
Active means: 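a reagent is called a hit when its Z score is above 1.5 or below -1.5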
Meaning of the calls: active = hit, ATP up or down; inactive = not a hit
The whole screen tested about 3,100 reagents; shown is a part drawn at random. 126 of them (4.1%) count as active. 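Calls are per reagent; zinc was so toxic that few knock-downs lowered ATP further, so most hits raise ATP.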 Raw values vary from plate to plate and are shown uncorrected. Entries without a mark were called inactive. Reagents against one gene are numbered here. Names joined by + are all predicted targets of the reagent. Not stated in the record: the amount of reagent.

Knock-down of Arms (Ankyrin repeat-rich membrane spanning) #1 resulted in: mean Z score -0.441; ATP luminescence, replicate 1 = 40845; ATP luminescence, replicate 2 = 39216.
After knock-down of Arms (Ankyrin repeat-rich membrane spanning) #2, the record shows mean Z score -0.41; ATP luminescence, replicate 1 = 29205; ATP luminescence, replicate 2 = 29033.
Ir94d (Ionotropic receptor 94d) gave mean Z score -0.0101; ATP luminescence, replicate 1 = 46349; ATP luminescence, replicate 2 = 49023.
After knock-down of crq (croquemort) the results were mean Z score -0.289; ATP luminescence, replicate 1 = 42487; ATP luminescence, replicate 2 = 42781.
crb (crumbs) #1 showed mean Z score -0.318; ATP luminescence, replicate 1 = 43639; ATP luminescence, replicate 2 = 42251.
crb (crumbs) #2 scored mean Z score -0.243; ATP luminescence, replicate 1 = 46799; ATP luminescence, replicate 2 = 43041.
With knock-down of Nup93-2 (Nucleoporin 93kD-2) the results were mean Z score 0.628; ATP luminescence, replicate 1 = 52757; ATP luminescence, replicate 2 = 51631.
Knock-down of ppk12 (pickpocket 12) #1 gave: mean Z score -0.409; ATP luminescence, replicate 1 = 47240; ATP luminescence, replicate 2 = 37759.
After knock-down of ppk12 (pickpocket 12) #2, the screen gave mean Z score -0.343; ATP luminescence, replicate 1 = 57528; ATP luminescence, replicate 2 = 52161.
Against CG10864, the values are mean Z score 0.119; ATP luminescence, replicate 1 = 37517; ATP luminescence, replicate 2 = 61884.
Nup133 (Nucleoporin 133kD) gave mean Z score 3.26 (active); ATP luminescence, replicate 1 = 86788; ATP luminescence, replicate 2 = 78005.
Knock-down of GPHR (Golgi pH Regulator) #1 gave: mean Z score -0.163; ATP luminescence, replicate 1 = 62998; ATP luminescence, replicate 2 = 70767.
Knock-down of GPHR (Golgi pH Regulator) #2 gave: mean Z score -0.16; ATP luminescence, replicate 1 = 55373; ATP luminescence, replicate 2 = 57607.
After knock-down of CG17841 #1, the screen gave mean Z score -0.754; ATP luminescence, replicate 1 = 36165; ATP luminescence, replicate 2 = 38902.
CG17841 #2 scored mean Z score 0.0767; ATP luminescence, replicate 1 = 62844; ATP luminescence, replicate 2 = 62301.
Silencing of CG7530 #1 came out at: mean Z score 0.0352; ATP luminescence, replicate 1 = 58077; ATP luminescence, replicate 2 = 56568.
CG7530 #2 gave mean Z score -0.0583; ATP luminescence, replicate 1 = 55693; ATP luminescence, replicate 2 = 53841.

Entries above whose target name begins with P or p (2):
ppk12 (pickpocket 12) #1: mean Z score = -0.409; ATP luminescence, replicate 1 = 47240; ATP luminescence, replicate 2 = 37759
ppk12 (pickpocket 12) #2: mean Z score = -0.343; ATP luminescence, replicate 1 = 57528; ATP luminescence, replicate 2 = 52161

Further records follow.
For SsRbeta (Signal sequence receptor beta) the deposit lists mean Z score -0.0137; ATP luminescence, replicate 1 = 30573; ATP luminescence, replicate 2 = 31433.
Knock-down of CNT1 (Concentrative nucleoside transporter 1) #1 resulted in: mean Z score -0.201; ATP luminescence, replicate 1 = 95468; ATP luminescence, replicate 2 = 70716.
Against CNT1 (Concentrative nucleoside transporter 1) #2 the deposit lists mean Z score -0.247; ATP luminescence, replicate 1 = 49606; ATP luminescence, replicate 2 = 65708.
SdhC (Succinate dehydrogenase, subunit C) #1 gave mean Z score -0.309; ATP luminescence, replicate 1 = 31879; ATP luminescence, replicate 2 = 52675.
Silencing of SdhC (Succinate dehydrogenase, subunit C) #2 resulted in: mean Z score 0.0785; ATP luminescence, replicate 1 = 52315; ATP luminescence, replicate 2 = 62656.
CG17660 #1 scored mean Z score 0.261; ATP luminescence, replicate 1 = 56429; ATP luminescence, replicate 2 = 63599.
CG17660 #2 gave mean Z score 0.579; ATP luminescence, replicate 1 = 70922; ATP luminescence, replicate 2 = 70579.
With knock-down of if (inflated) #1, the record shows mean Z score -0.266; ATP luminescence, replicate 1 = 39902; ATP luminescence, replicate 2 = 42028.
if (inflated) #2 scored mean Z score 0.673; ATP luminescence, replicate 1 = 62301; ATP luminescence, replicate 2 = 59209.
Depletion of rho-7 + CG34231 resulted in: mean Z score 0.852; ATP luminescence, replicate 1 = 62124; ATP luminescence, replicate 2 = 60152.
Knock-down of brv1 (brivido-1) came out at: mean Z score -0.0339; ATP luminescence, replicate 1 = 75138; ATP luminescence, replicate 2 = 61301.
For prom (prominin) #1, the entry reads mean Z score -0.235; ATP luminescence, replicate 1 = 44240; ATP luminescence, replicate 2 = 46331.
prom (prominin) #2 gave mean Z score -0.325; ATP luminescence, replicate 1 = 57151; ATP luminescence, replicate 2 = 46177.
prom (prominin) #3 showed mean Z score -0.338; ATP luminescence, replicate 1 = 60358; ATP luminescence, replicate 2 = 57486.
prom (prominin) #4 gave mean Z score -0.214; ATP luminescence, replicate 1 = 56911; ATP luminescence, replicate 2 = 55179.
